Results deposited as PubChem BioAssay AID1259308 (NCATS, 2017).
The deposit covers about 59,000 reagents; shown is an unselected part. About 1,510 of them (2.6%) count as active. 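Calls use total luciferase alone and ignore viability, so some active siRNAs may act by altering cell number.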 Reagents against one gene are numbered here.

Assay: 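Genes whose loss raises luciferase production in HEK293 cells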 (primary screen)
System: human HEK293 embryonic kidney cells stably expressing firefly luciferase (HEK-CMV-Luc2-Hygro)
Knock-down reagent: single siRNA against human genes, 0.8 pmol siRNA per well
Time to read-out: 72 h
Measurement: 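Reporter luminescence and viable-cell signal on separate replicate plates, given as percent of non-targeting control and median/MAD z-scores, plus per-cell luciferase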
Reading the numbers: total luciferase, z-score and total luciferase, % of control: higher = more reporter protein produced; luciferase per cell, z-score: higher = more reporter output per viable cell; viable cells, % of control: higher = more viable cells
Active means: 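An siRNA counts as active if its total luciferase robust z-score exceeds 3; genes with two or more such siRNAs out of three were retested with fresh siRNAs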
Calls: active = raised luciferase; inactive = no rise

The first 3 records, ahead of the listing:
gene | reagent no. | total luciferase, z-score | total luciferase, % of control | luciferase per cell, z-score | viable cells, % of control | activity call
KCP | 1 | 3.28 | 147 | 2.1 | 94.7 | active
KCP | 2 | -0.687 | 68.2 | 0.589 | 65.3 | inactive
KCP | 3 | -0.54 | 71.1 | 1.21 | 57.8 | inactive

Results, repeating the preview:
gene | reagent no. | total luciferase, z-score | total luciferase, % of control | luciferase per cell, z-score | viable cells, % of control | activity call
KCP | 1 | 3.28 | 147 | 2.1 | 94.7 | active
KCP | 2 | -0.687 | 68.2 | 0.589 | 65.3 | inactive
KCP | 3 | -0.54 | 71.1 | 1.21 | 57.8 | inactive
FADS6 | 1 | -0.65 | 69 | -0.942 | 98.8 | inactive
FADS6 | 2 | -0.652 | 68.9 | 0.0269 | 76.5 | inactive
FADS6 | 3 | -0.745 | 67.1 | 1.34 | 52.7 | inactive
SACK1F | 1 | 1.6 | 114 | 1.9 | 77.1 | inactive
SACK1F | 2 | 0.838 | 98.6 | 0.727 | 91 | inactive
SACK1F | 3 | 0.654 | 94.9 | 0.969 | 82.2 | inactive
RECK | 1 | 0.267 | 87.2 | -0.681 | 117 | inactive
RECK | 2 | -0.777 | 66.4 | -0.841 | 92.6 | inactive
RECK | 3 | 0.907 | 99.9 | 0.317 | 103 | inactive
SLC35D3 | 1 | -0.144 | 79 | -0.979 | 114 | inactive
SLC35D3 | 2 | -0.277 | 76.4 | -0.0268 | 86 | inactive
SLC35D3 | 3 | 0.157 | 85 | 0.797 | 77 | inactive
RPS11P5 | 1 | -2.4 | 34.1 | -0.564 | 44.3 | inactive
RPS11P5 | 2 | -1.53 | 51.4 | -1.44 | 84 | inactive
RPS11P5 | 3 | -3.14 | 19.5 | -3.25 | 51.3 | inactive
P3H1 | 1 | -0.225 | 77.4 | 1.07 | 65.3 | inactive
P3H1 | 2 | -0.72 | 67.6 | 0.164 | 72.3 | inactive
P3H1 | 3 | -2.11 | 39.9 | -1.63 | 68.5 | inactive
MRPL9 | 1 | -0.465 | 72.6 | -0.157 | 84.6 | inactive
MRPL9 | 2 | -0.103 | 79.8 | -1.19 | 122 | inactive
MRPL9 | 3 | 0.369 | 89.2 | 0.0875 | 97.4 | inactive
ARHGEF37 | 1 | 2.23 | 126 | 1.95 | 84.5 | inactive
ARHGEF37 | 2 | -1.47 | 52.7 | -0.339 | 64.4 | inactive
ARHGEF37 | 3 | 0.903 | 99.8 | 0.499 | 97.8 | inactive
LINC01874 | 1 | 1.72 | 116 | 2.6 | 65.3 | inactive
LINC01874 | 2 | 0.367 | 89.2 | 1.19 | 72.9 | inactive
LINC01874 | 3 | -0.707 | 67.8 | -0.298 | 82 | inactive
RAB1AP2 | 1 | 2.27 | 127 | 2.29 | 77.7 | inactive
RAB1AP2 | 2 | 2.02 | 122 | 2.49 | 70.8 | inactive
RAB1AP2 | 3 | 1.45 | 111 | 1.8 | 77.1 | inactive
ADAMTSL3 | 1 | -2.37 | 34.8 | -2.99 | 85.5 | inactive
ADAMTSL3 | 2 | -2.1 | 40.1 | -1.16 | 60.7 | inactive
ADAMTSL3 | 3 | -0.783 | 66.3 | -1.32 | 105 | inactive
B9D2 | 1 | 0.0512 | 82.9 | 0.593 | 79.3 | inactive
B9D2 | 2 | -1.29 | 56.2 | -1.14 | 84.8 | inactive
B9D2 | 3 | 0.28 | 87.5 | -0.245 | 104 | inactive
GPR149 | 1 | 1.63 | 114 | 1.1 | 95.7 | inactive
GPR149 | 2 | -0.322 | 75.5 | -0.823 | 105 | inactive
GPR149 | 3 | -1.57 | 50.6 | -1.89 | 93.1 | inactive
KLF5 | 1 | 0.576 | 93.3 | 0.333 | 95.6 | inactive
KLF5 | 2 | 1.11 | 104 | 1.55 | 77.3 | inactive
KLF5 | 3 | 0.325 | 88.3 | 1.1 | 73.8 | inactive
IMPDH2 | 1 | 0.119 | 84.2 | 0.0486 | 92.9 | inactive
IMPDH2 | 2 | 2.29 | 127 | 1.7 | 90.9 | inactive
IMPDH2 | 3 | 0.164 | 85.1 | 0.362 | 86.5 | inactive
B4GALT5 | 1 | 2.51 | 132 | 1.8 | 91.7 | inactive
B4GALT5 | 2 | -0.11 | 79.7 | -0.276 | 95.8 | inactive
B4GALT5 | 3 | -0.909 | 63.8 | -0.0995 | 73.2 | inactive
ASB3 | 1 | 0.145 | 84.8 | 0.317 | 87.1 | inactive
ASB3 | 2 | 0.418 | 90.2 | 0.153 | 96.8 | inactive
ASB3 | 3 | -0.231 | 77.3 | -0.876 | 109 | inactive
ZNF589 | 1 | 0.265 | 87.2 | 0.463 | 86.2 | inactive
ZNF589 | 2 | -0.325 | 75.4 | -0.715 | 102 | inactive
ZNF589 | 3 | -1.38 | 54.5 | -0.915 | 77.4 | inactive
